Measurements reported in PubChem BioAssay AID504764 (Drosophila RNAi Screening Center, 2011)

- Purpose: 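Knock-downs that raise or lower a Notch target reporter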 (primary screen)
- System: Drosophila Kc167 cells
- Reagents: long dsRNA against Drosophila genes
- Timing: about 5 days (4 days dsRNA, then 24 h after transfection)
- Treatment: transfection of constitutively active membrane-tethered Notch lacking the extracellular domain, read 24 h later
- Read-out: 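Firefly luciferase from an E(spl)m3 reporter with active Notch, plus control-promoter and uninduced reporter wells for normalisation; unnormalised counts, duplicate wells a and b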
- Scale: induced reporter light, run 1, well a and induced reporter light, run 1, well b: higher = more light from the Notch target reporter with active Notch; control promoter light, run 1, well a and control promoter light, run 1, well b: higher = more light from the viral control promoter (cell number, transfection, viability); uninduced reporter light, run 1, well a: higher = more light from the Notch target reporter without active Notch
- Active means: 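Hit if the duplicate-averaged log2 ratio of induced to control-promoter light gives a plate-wise z beyond ±2, or induced to uninduced beyond ±1.8; weak-control or discordant-duplicate wells dropped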
- Calls: active = modifier hit (raised or lowered Notch signal); inactive = not a hit
The screen tested about 22,000 reagents; this is an unselected part of those with a known target gene and a result. In the full data, 403 (1.9%) are marked active. 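Unnormalised raw counts per well; ratio z-scores behind the hit calls and whether each hit raises or lowers signal are not deposited.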 Reagents against one gene are numbered here. A plus sign joins genes that one reagent is predicted to hit. Not stated in the record: the amount of reagent.

gene	reagent no.	induced reporter light, run 1, well a	induced reporter light, run 1, well b	control promoter light, run 1, well a	control promoter light, run 1, well b	uninduced reporter light, run 1, well a	outcome
obst-G (obstructor-G)	1	1.40e5	1.11e5	1.64e5	1.39e5	7390	inactive
CG7332	1	1.30e5	1.01e5	91845	65675	9210	inactive
CG15117	1	51830	54385	1.01e5	1.03e5	6720	inactive
Pex6 + Hao	1	1.55e5	1.54e5	1.39e5	1.56e5	11260	inactive
Pex6 + Hao	2	1.77e5	1.53e5	2.03e5	2.25e5	16265	inactive
CG31347	1						inactive
Rpt4R (Regulatory particle triple-A ATPase 4-related)	1	1.56e5	1.50e5	1.73e5	1.50e5	6938	inactive
CG11127	1	1.47e5	1.71e5	1.48e5	1.45e5	11435	inactive
Nopp140	1	92925	82280	90630	98290	6120	inactive
alphaTry (alphaTrypsin)	1	1.08e5	87310	1.01e5	1.06e5	8115	inactive
Hmgs (HMG Coenzyme A synthase)	1	1.24e5	1.30e5	1.09e5	1.10e5	9825	inactive
LRP1 (LDL receptor protein 1)	1	2.01e5	1.82e5	2.52e5	2.06e5	17415	inactive
TyrRII (Tyramine receptor II)	1	1.62e5	1.32e5	1.87e5	1.68e5	12355	inactive
how (held out wings)	1	31305	27935	31375	30495	5055	inactive
SLC22A (SLC22A family member)	1	28460	28755	37910	28045	2405	inactive
SLC22A (SLC22A family member)	2	36065	33605	29250	30565	3160	inactive
Arl4 (ADP ribosylation factor-like 4)	1	1.07e5	1.27e5	1.58e5	2.04e5	7805	inactive
yip3 (yippee interacting protein 3)	1	1.86e5	2.07e5	1.74e5	1.78e5	15775	inactive
CG42516 + Pbp49	1	1.83e5	1.81e5	1.90e5	1.95e5	14865	inactive
Mob3 (MOB kinase activator 3)	1	1.05e5	1.45e5	81995	97830	16470	inactive
CG17272	1	1.52e5	1.62e5	1.78e5	1.56e5	10500	inactive
CG32683	1	74950	74305	1.28e5	1.10e5	5195	inactive
CG32683	2	1.12e5	99925	1.47e5	1.23e5	7610	inactive
CG32683	3	92755	1.00e5	1.21e5	1.18e5	6405	inactive
CG1690	1	1.74e5	1.46e5	2.07e5	2.25e5	16435	inactive
awd (abnormal wing discs)	1	1.06e5	1.02e5	1.41e5	2.09e5	7570	inactive
CG10343	1	69355	47135	1.15e5	94265	5280	inactive
Obp19d (Odorant-binding protein 19d)	1	75120	86150	94380	1.02e5	9980	inactive
unc-4	1	1.07e5	79570	1.02e5	1.09e5	13685	inactive
COX4L (Cytochrome c oxidase subunit 4-like)	1	1.65e5	1.61e5	1.47e5	1.74e5	11875	inactive
Zip71B (Zinc/iron regulated transporter-related protein 71B)	1	1.60e5	2.22e5	2.90e5	2.14e5	9120	inactive
Ir51a (Ionotropic receptor 51a)	1	1.24e5	1.14e5	1.39e5	1.27e5	10210	inactive
Cpr47Ee (Cuticular protein 47Ee)	1	11815	8560	13505	10605	3665	inactive
CG6707	1	1.56e5	1.04e5	1.50e5	1.40e5	7610	inactive
qtc (quick-to-court)	1	1.82e5	1.81e5	2.07e5	2.07e5	17020	inactive
qtc (quick-to-court)	2	1.08e5	89690	1.06e5	90310	7030	inactive
Or42a (Odorant receptor 42a)	1	2.38e5	2.25e5	2.71e5	2.45e5	16605	inactive
CG7789	1	85670	92550	1.76e5	1.31e5	8560	inactive
Prosbeta1 (Proteasome beta1 subunit)	1	30345	26895	38150	38965	2360	inactive
Ccp84Ac	1	1.22e5	1.30e5	1.22e5	1.01e5	7930	inactive
Su(P) (Suppressor of ref(2)P sterility)	1	1.38e5	1.59e5	1.71e5	1.80e5	6860	inactive
l(2)05714 (lethal (2) 05714)	1	95770	86175	95330	89425	8535	inactive
AQP (aquaporin)	1	1.22e5	1.06e5	1.39e5	1.29e5	9040	inactive
CG14282	1	1.71e5	1.80e5	1.84e5	1.67e5	13410	inactive
jv (javelin)	1	1.59e5	1.35e5	1.47e5	1.40e5	10555	inactive
jv (javelin)	2	1.65e5	1.68e5	2.24e5	1.62e5	12430	inactive
Srp14 (Signal recognition particle 14)	1	1.92e5	1.82e5	2.10e5	1.94e5	11592	inactive
SAK (Sak kinase)	1	55045	44485	56045	46925	3000	inactive
CG15249	1	1.30e5	1.42e5	2.22e5	2.97e5	9680	inactive
Cyp6a8 (Cytochrome P450 6a8)	1	80645	76740	69830	66090	5805	inactive

Single entries from the list.
Hmgs (HMG Coenzyme A synthase), outcome = inactive
Cpr47Ee (Cuticular protein 47Ee), outcome: inactive
Value for Mob3 (MOB kinase activator 3) in “control promoter light, run 1, well a”: 81995
Result of CG1690 under “induced reporter light, run 1, well a”: 1.74e5
Under “control promoter light, run 1, well b”, AQP (aquaporin) is entered as 1.29e5
qtc (quick-to-court) #2, outcome = inactive
